# Measured values reported in PubChem BioAssay AID1347076 (National Center for Advancing Translational Sciences (NCATS), 2019).
# “And” between values parts separate entries of the source, which are not always exact repeats. Identical values can stand only once. In all, about 400,000 compounds went through this assay and about 13,000 (3.2%) were called active. The shares of active, inactive and inconclusive entries below differ from those in the screen. The call rests on the fitted dose curve; in most records, active means well fitted cell-killing curve with a large enough effect; inconclusive means small, poorly fitted or top-dose-only effect, or effect the other way; inactive means flat fitted curve, though single readings scatter. Potencies of inconclusive entries are doubtful fits and often do not repeat.
# Assay: qHTS assay for MDR1-selective chemotherapeutics: Primary screen using the drug-selected MDR subline cells KB-V1; further: nearly all actives have a fitted effect of over 60% in size
# Details: KB-V1 MDR cells viability, CellTiter-Glo, 72 h; activity change, negative = cytotoxicity: at 46.1 µM (top of the series)
# Method in brief: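 Following 72 h at 37 degrees C with compound, KB-V1 cell viability was read by CellTiter-Glo luminescence, medium being phenol-red-free DMEM plus 10% FBS; concentration-response parameters came from normalized, curve-fitted qHTS data.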
# On the % scale 0 is the no-effect control and ±100 the full control effect; potency means the concentration at half of the fitted maximal effect.
SMILES,Potency,"activity change, negative = cytotoxicity"
Cc1ccc2c(C)c(C(=O)N3CCN(C4CCS(=O)(=O)C4)CC3)oc2c1C (stereo not drawn),"inconclusive: 20.6 µM [cytotoxic, single point]",
CCN1/C(=C/C=C/c2sc3ccccc3[n+]2CC)Sc2ccccc21,"inconclusive: 20.6 µM [cytotoxic, single point]",
CCOC(=O)c1cccc(NC(=O)CNC(=O)C2CCCCC2)c1,"inconclusive: 29.1 µM [cytotoxic, single point]",
O=C(NCCN1CCN(c2ccccc2)CC1)C1CCN(S(=O)(=O)c2cccc3nonc23)CC1,"inconclusive: 13 µM [cytotoxic, partial curve]",
COc1ccc(CNC(C)C(=O)Nc2ccc3ccccc3c2)cc1OC (stereo not drawn),"inconclusive: 16.4 µM [cytotoxic, partial curve]",
COc1ccc([C@H]2/C=C\CN(S(=O)(=O)c3cccc4cccnc34)[C@@H](C)C(=O)N2Cc2ccc(F)cc2)cc1,inactive,
COc1ccccc1NC(=O)c1sc2ncn(Cc3ccc(C)cc3)c(=O)c2c1C,"inconclusive: 9.2 µM [cytotoxic, partial curve]",
COc1cc(OC)cc(C(=O)NCC(=O)OC2CCCCC2=O)c1 (stereo not drawn),"inconclusive: 29.1 µM [rising, single point]",
COc1ccc(C(=O)O/N=C(\N)Cc2ccc(Cl)c(Cl)c2)cc1OC,"inconclusive: 29.1 µM [cytotoxic, single point]",
Cc1cccc(-n2c(O)c(C=NCCCN3CCOCC3)c3ccccc3c2=O)c1,inactive,
O=C(NCc1ccccc1)c1cnc(N2CCCCC2)c2ccccc12,"inconclusive: 16.4 µM [cytotoxic, single point]",
Cc1cc(C)n(Cc2ccc(NC(=O)c3nn(C)cc3[N+](=O)[O-])cc2)n1,"inconclusive: 16.4 µM [cytotoxic, partial curve, poor fit]",
Cc1nn2cc(-c3ccc(-c4ccccc4)cc3)nc2s1,"inconclusive: 16.4 µM [rising, single point]",
CCn1c(SCc2ccccc2)nc2cc(OC)c(OC)cc2c1=O,"inconclusive: 2.59 µM [cytotoxic, full curve]",
COc1ccccc1N1CCN(C(=O)CN2C(=O)c3cccc4cccc(c34)C2=O)CC1,inactive,
O=c1c2ccccc2nc2c3ccccc3c(NCc3ccccn3)nn12,"inconclusive: 18.4 µM [cytotoxic, single point]",
Cc1ccc(NC(=O)CCNS(=O)(=O)c2ccc3c(c2)CCC(=O)N3)cc1,"inconclusive: 5.17 µM [rising, full curve, poor fit]",
Cn1c(NC(=O)c2ccccc2NC(=O)C(C)(C)C)nc2ccccc21,"inconclusive: 29.1 µM [cytotoxic, single point]",
CCOC(=O)N1CCC(n2c(=S)[nH]c3cc(OC)c(OC)cc3c2=O)CC1,"inconclusive: 2.06 µM [cytotoxic, full curve]",
COc1ccc(CCC(=O)N(C)CC(=O)Nc2ccc(Cl)c(C(F)(F)F)c2)cc1,"inconclusive: 29.1 µM [cytotoxic, single point]",
COc1ccc(NC(=O)c2ccc(Cl)c(S(=O)(=O)N3CCc4ccccc4C3)c2)cn1,active: 4.61 µM,
C/C(=N\Oc1cccc(F)n1)c1ccc(Cl)cc1Cl,"inconclusive: 18.4 µM [rising, single point]",
CCOC(=O)Nc1sc(C(=O)N(CC)CC)c(C)c1C(=O)OCC,inactive,

SMILES,Potency,"activity change, negative = cytotoxicity"
CC(C)C(NC(=O)c1ccc2c(c1)OCCO2)c1nc2ccccc2[nH]1 (stereo not drawn),inactive,
CC(=O)Nc1ccc(NC(=O)C(=O)NCC(c2ccco2)N2CCc3ccccc3C2)cc1 (stereo not drawn),"inconclusive: 8.2 µM [cytotoxic, partial curve]",
O=C(CCN1CCOCC1)c1ccc(Cl)cc1,inactive,
O=S(=O)(c1ccc2c(c1)oc1ccccc12)N1CCOCC1,"inconclusive: 20.6 µM [cytotoxic, single point]",
Cc1cccnc1NC(=S)Nc1ccc(F)cc1F,"inconclusive: 29.1 µM [cytotoxic, partial curve, poor fit]",
O=C(c1ccco1)N1CCN(C(=O)c2cc(-c3ccncc3)nc3ccc(Br)cc23)CC1,"inconclusive: 16.4 µM [cytotoxic, partial curve, poor fit]",
COc1ccc(S(=O)(=O)N2CCOCC2)cc1NS(=O)(=O)c1ccc(F)c(F)c1,active: 23.1 µM,
O=C(c1cc(-c2ccc(O)cc2)on1)N1CCN(c2ccccc2)CC1,"inconclusive: 32.6 µM [cytotoxic, single point] and inconclusive: 13 µM [cytotoxic, partial curve]",
CCn1c(=O)cc(OCC(=O)N2CCN(c3ccc(F)cc3)CC2)c2ccccc21,inactive,
COc1ccc2[nH]c3c(c(=O)c2c1)CCCC3,inactive,
O=C(Cn1nc(-c2ccc(Cl)cc2)ccc1=O)N1CCN(c2ccccc2)CC1,active: 20.6 µM,
CCCC(O)(c1ccc(Br)cc1)C(CN1CCOCC1)c1ccc(Cl)cc1 (stereo not drawn),"inconclusive: 16.4 µM [cytotoxic, partial curve, poor fit]",
CCCCOC(=O)c1ccc(NC(=O)c2cnc3ccc(C)cn3c2=O)cc1,"inconclusive: 29.1 µM [rising, single point]",
Cc1cc2c(cc(C(=O)OCC(=O)NCc3ccco3)n2C)s1,active: 3.66 µM,
O=C(NNC(=O)C1[C@H]2CCCC[C@@H]12)c1ccc(=O)oc1 (stereo partly drawn),"inconclusive: 29.1 µM [rising, single point]",
CC(C)(C)C(=O)Nc1nc(-c2ccc3c(c2)OCO3)cs1,"inconclusive: 29.1 µM [cytotoxic, single point]",
C[C@H](NC(=O)c1nc[nH]c1C(=O)N[C@@H](Cc1ccccc1)C(=O)OCc1ccccc1)C(=O)OC(C)(C)C,inactive,
CNC(C)c1ccc(S(N)(=O)=O)cc1 (stereo not drawn),"inconclusive: 0.0046 µM [rising, full curve, poor fit]",
CC(=O)NCCNC(=O)C1Cc2c(-c3ccccc3)ccnc2O1 (stereo not drawn),inactive,
COCCNC(=S)N1CCN(c2cccc(C)c2C)CC1,active: 20.6 µM,
Cc1ccc(Nc2nc3ccccc3nc2Nc2c(C)n(C)n(-c3ccccc3)c2=O)cc1,,inconclusive: -24.2%
O=C(N/N=C/c1c[nH]c2ccccc12)c1ccccc1,inactive,
Cc1ccc(-c2csc3ncnc(N4CCc5ccccc5C4)c23)cc1,"inconclusive: 13 µM [cytotoxic, partial curve]",

SMILES,Potency,"activity change, negative = cytotoxicity"
Cc1cccc(NS(=O)(=O)c2ccc3c(c2)CCN3C(=O)CCC(=O)O)c1,inactive,
CCS(=O)(=O)N1N=C(c2ccccc2)CC1c1ccc2nccnc2c1 (stereo not drawn),"inconclusive: 18.4 µM [cytotoxic, partial curve]",
CC[N+]1(C)CCC(O)(/C=C/c2ccccc2)C(C(=O)/C=C/c2ccccc2)C1 (stereo not drawn),"inconclusive: 18.4 µM [cytotoxic, single point]",
C[C@@H]1CN([C@@H](C)CO)C(=O)c2cc(C#CCN(C)C)cnc2O[C@H]1CN(C)Cc1ccc2c(c1)OCO2,inactive,
Cc1cccc(/C=N/NC(=O)c2cc(-c3cccnc3)nc3c2c(C)nn3-c2ccccc2)c1,active: 14.6 µM,
S=C(NCc1ccco1)N1CCN(c2nc(-c3ccccc3)cs2)CC1,"inconclusive: 18.4 µM [cytotoxic, single point]",
CCOC(=O)[C@]12CCCC=C1N(Cc1ccc3c(c1)OCO3)C(=O)[C@H](CC(=O)N1CCCCC1)C2,"inconclusive: 5.8 µM [cytotoxic, partial curve]",
CCCOC(=O)C1=C(C)NC(=O)NC1c1cc2c(cc1Br)OCO2 (stereo not drawn),"inconclusive: 5.8 µM [cytotoxic, partial curve]",
Cc1nn(C)c(C)c1CNC(=O)Nc1cccc(Cl)c1,"inconclusive: 32.6 µM [cytotoxic, single point]",
COC(=O)[C@]12CCCCC=C1N(CCc1ccc(OC)c(OC)c1)C(=O)[C@H](CC(=O)N1CCCCC1)C2,"inconclusive: 13 µM [cytotoxic, partial curve, poor fit]",
COCCNC(=O)C(c1cccnc1)N(Cc1ccccc1)C(=O)Cn1nnc2ccccc21 (stereo not drawn),,inconclusive: -37.6% [cytotoxic]
O=C(c1ccc([N+](=O)[O-])cc1)N1CCN(c2ncc(Br)cn2)CC1,inactive,
Cc1ccc(CN2CCN(Cc3c(C)nn(C(C)C)c3C)CC2CCO)o1 (stereo not drawn),"inconclusive: 29.1 µM [rising, single point]",
C(=C\c1ccccc1)/CN1CCN(C(c2cccc3ccccc23)c2nnnn2Cc2ccccc2)CC1 (stereo not drawn),"inconclusive: 23.1 µM [cytotoxic, partial curve, poor fit]",
CSc1nc2sc3c(c2c(=O)n1-c1ccccc1)CCC(C(C)(C)C)C3 (stereo not drawn),"inconclusive: 20.6 µM [rising, single point]",
CNc1nc(NCc2ccc(C)cc2C)c2sccc2n1,"inconclusive: 29.1 µM [cytotoxic, single point]",
COCCn1c(=O)c2c(nc3n2CC(C)CN3CCc2ccccc2)n(C)c1=O (stereo not drawn),"inconclusive: 20.6 µM [cytotoxic, single point]",
O=S(=O)(c1ccc2c(c1)OCCO2)N1CCN(c2ncnc3sccc23)CC1,inactive,
COc1ccc(S(=O)(=O)NC(=O)C2(C)CCN2C(=O)C2CCCCC2)cc1OC (stereo not drawn),inactive,
COc1ncnc2c1ncn2CCCN(CCCc1ccccc1)CCCn1cnc2c(OC)ncnc21,inactive,
Cc1cccc2nc(CSc3nnc(N)s3)cn12,inactive,
O=S1(=O)C=C(Sc2nnc(-c3ccccc3)o2)c2ccccc21,"inconclusive: 18.4 µM [cytotoxic, single point]",
